Record: PubChem BioAssay AID504784 (Drosophila RNAi Screening Center, 2011)
Test: 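Fly genes whose silencing alters how much lipid cells keep in droplets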 (primary screen). System: Drosophila Kc167 embryonic cells. Reagent: long dsRNA against Drosophila genes, about 250 ng dsRNA per well. Duration: 4 days. Challenge: cells fed 400 µM oleic acid bound to BSA. Measurement: 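Microscope images give a droplet-to-nucleus area ratio, taken as log and converted to a screen-wide B-score; higher values mean greater lipid storage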. Scale: droplet/nuclear area B-score: higher = more stored lipid (overstorage).
The screen tested about 17,000 reagents; below is a random part of those that have a named target and a result. 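Each column is one replicate's B-score; the combined score over replicates was not deposited, so single values may mislead.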 A plus sign joins genes that one reagent is predicted to hit. No sequences are given here.

Knock-down of polybromo (GeneID 42954) [DRSC14307] resulted in: droplet/nuclear area B-score, replicate 1 = -0.324; droplet/nuclear area B-score, replicate 2 = 1.87.
Silencing of CG31380 (GeneID 318701) [DRSC15688] resulted in: droplet/nuclear area B-score, replicate 1 = 0.478; droplet/nuclear area B-score, replicate 2 = -0.797.
With knock-down of Gba1a (GeneID 42796) [DRSC21494] the results were droplet/nuclear area B-score, replicate 1 = -0.0415; droplet/nuclear area B-score, replicate 2 = -4.27.
Mics1 (GeneID 40898) [DRSC12537] showed droplet/nuclear area B-score, replicate 1 = 1.03; droplet/nuclear area B-score, replicate 2 = 0.576.
Knock-down of bnk (GeneID 43687) [DRSC16912] came out at: droplet/nuclear area B-score, replicate 1 = 0.173; droplet/nuclear area B-score, replicate 2 = -0.0344.
Silencing of CG6125 (GeneID 41882) [DRSC15970] came out at: droplet/nuclear area B-score, replicate 1 = 0.0109; droplet/nuclear area B-score, replicate 2 = -0.57.
After knock-down of CG3246 (GeneID 33564) [DRSC00584], the record shows droplet/nuclear area B-score, replicate 1 = -0.907; droplet/nuclear area B-score, replicate 2 = 0.693.
Against CG18787 + CG18789 [DRSC02698], the values are droplet/nuclear area B-score, replicate 1 = -5.53; droplet/nuclear area B-score, replicate 2 = 4.65.
With knock-down of CG5056 (GeneID 34406) [DRSC02808], the screen gave droplet/nuclear area B-score, replicate 1 = -0.604; droplet/nuclear area B-score, replicate 2 = 0.315.
BomBc1 (GeneID 37099) [DRSC06501] gave droplet/nuclear area B-score, replicate 1 = 0.311; droplet/nuclear area B-score, replicate 2 = -0.0242.
With knock-down of Vps2 (GeneID 43164) [DRSC14886] the results were droplet/nuclear area B-score, replicate 1 = 2.74; droplet/nuclear area B-score, replicate 2 = 11.7.
Against CG31157 (GeneID 318608) [DRSC21832], the values are droplet/nuclear area B-score, replicate 1 = 0.439; droplet/nuclear area B-score, replicate 2 = 2.66.
bru2 (GeneID 250811) [DRSC01246] scored droplet/nuclear area B-score, replicate 1 = 0.00119; droplet/nuclear area B-score, replicate 2 = -1.42.
bru2 (GeneID 250811) [DRSC01247] gave droplet/nuclear area B-score, replicate 1 = -0.844; droplet/nuclear area B-score, replicate 2 = -2.47.
bru2 (GeneID 250811) [DRSC01249] scored droplet/nuclear area B-score, replicate 1 = -1.35; droplet/nuclear area B-score, replicate 2 = -0.388.
bru2 (GeneID 250811) [DRSC02557] showed droplet/nuclear area B-score, replicate 1 = 3.64; droplet/nuclear area B-score, replicate 2 = 4.77.
With knock-down of CG4610 (GeneID 37571) [DRSC04477], the screen gave droplet/nuclear area B-score, replicate 1 = -0.407; droplet/nuclear area B-score, replicate 2 = 2.43.
Against CG4610 (GeneID 37571) [DRSC22397], the entry reads droplet/nuclear area B-score, replicate 2 = -0.00516.
Silencing of CG42382 (GeneID 35938) [DRSC07671] resulted in: droplet/nuclear area B-score, replicate 1 = -0.566; droplet/nuclear area B-score, replicate 2 = -0.268.
Knock-down of CG12773 (GeneID 31082) [DRSC18580] gave: droplet/nuclear area B-score, replicate 1 = 0.575.
Knock-down of IRSp53 (GeneID 39258) [DRSC10891] came out at: droplet/nuclear area B-score, replicate 1 = 0.252; droplet/nuclear area B-score, replicate 2 = -0.35.
Knock-down of Sf3a2 (GeneID 39456) [DRSC09801] gave: droplet/nuclear area B-score, replicate 1 = -1.32; droplet/nuclear area B-score, replicate 2 = -1.07.
Against Taf9 (GeneID 32762) [DRSC20326], the entry reads droplet/nuclear area B-score, replicate 1 = 0.421; droplet/nuclear area B-score, replicate 2 = 2.66.
CG15673 (GeneID 37459) [DRSC04263] gave droplet/nuclear area B-score, replicate 1 = -0.0309; droplet/nuclear area B-score, replicate 2 = 0.124.

Just “droplet/nuclear area B-score, replicate 2” (7 entries from above):
CG31157 (GeneID 318608) [DRSC21832]	2.66
bru2 (GeneID 250811) [DRSC01246]	-1.42
bru2 (GeneID 250811) [DRSC01247]	-2.47
bru2 (GeneID 250811) [DRSC01249]	-0.388
bru2 (GeneID 250811) [DRSC02557]	4.77
CG4610 (GeneID 37571) [DRSC04477]	2.43
CG4610 (GeneID 37571) [DRSC22397]	-0.00516

Continued:
With knock-down of CG31805 (GeneID 318952) [DRSC01563], the screen gave droplet/nuclear area B-score, replicate 1 = 0.0613; droplet/nuclear area B-score, replicate 2 = 1.05.
With knock-down of aop (GeneID 33392) [DRSC00801], the screen gave droplet/nuclear area B-score, replicate 1 = 3.09; droplet/nuclear area B-score, replicate 2 = -1.33.
Silencing of aop (GeneID 33392) [DRSC22999] gave: droplet/nuclear area B-score, replicate 1 = -0.162; droplet/nuclear area B-score, replicate 2 = 2.88.
uri (GeneID 37924) [DRSC04111] showed droplet/nuclear area B-score, replicate 1 = 0.211; droplet/nuclear area B-score, replicate 2 = 0.132.
Ubr1 (GeneID 32687) [DRSC20148] scored droplet/nuclear area B-score, replicate 1 = 0.558; droplet/nuclear area B-score, replicate 2 = -1.55.
After knock-down of kune (GeneID 35504) [DRSC04860] the results were droplet/nuclear area B-score, replicate 1 = 0.056; droplet/nuclear area B-score, replicate 2 = -0.0411.
For CG17207 (GeneID 2768665) [DRSC15198], the entry reads droplet/nuclear area B-score, replicate 1 = -0.71; droplet/nuclear area B-score, replicate 2 = 1.27.
After knock-down of Mkp3 (GeneID 40081) [DRSC10084], the record shows droplet/nuclear area B-score, replicate 1 = -2.4; droplet/nuclear area B-score, replicate 2 = 1.66; droplet/nuclear area B-score, replicate 3 = -0.0913.
Mkp3 (GeneID 40081) [DRSC10085] gave droplet/nuclear area B-score, replicate 1 = 1.18; droplet/nuclear area B-score, replicate 2 = 0.536.
After knock-down of Rchy1 (GeneID 33901) [DRSC02542] the results were droplet/nuclear area B-score, replicate 1 = 2.58; droplet/nuclear area B-score, replicate 2 = -0.673.
Against Rchy1 (GeneID 33901) [DRSC23118] the deposit lists droplet/nuclear area B-score, replicate 1 = -2.16; droplet/nuclear area B-score, replicate 2 = -2.08.
Silencing of Syx16 (GeneID 33034) [DRSC20507] gave: droplet/nuclear area B-score, replicate 1 = -0.753; droplet/nuclear area B-score, replicate 2 = 1.13.
CG3225 (GeneID 33680) [DRSC00578] showed droplet/nuclear area B-score, replicate 1 = -1.18; droplet/nuclear area B-score, replicate 2 = 0.00478.
For MsR1 (GeneID 38298) [DRSC08615], the values are droplet/nuclear area B-score, replicate 1 = 0.661; droplet/nuclear area B-score, replicate 2 = -0.172.
Against prom (GeneID 246493) [DRSC04684], the values are droplet/nuclear area B-score, replicate 1 = -0.438; droplet/nuclear area B-score, replicate 2 = 0.628.
Knock-down of prom (GeneID 246493) [DRSC21463] resulted in: droplet/nuclear area B-score, replicate 1 = -0.383; droplet/nuclear area B-score, replicate 2 = 0.119.
prom (GeneID 246493) [DRSC22088] scored droplet/nuclear area B-score, replicate 1 = 3.35; droplet/nuclear area B-score, replicate 2 = -0.0175.
